This assay can be described thus: qHTS Assay for Lipid Storage Modulators in Drosophila S3 Cells.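 As to cell number change: cells counted by Cell Tracker Red CMTPX staining in the red channel.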 Conditions: BODIPY lipid droplet fluorescence, 18-24 h; for cell number change: measured here: cell count max response, cells fed with added oleic acid. In short, it runs like this: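 Drosophila S3 cells loaded with oleic acid (400 uM, as added) and compounds at several concentrations; lipid droplets imaged by 488-nm laser-scanning cytometry, 500–530 nm intensity and object ratio to cell channel. Percent activity normalized to 20 uM Triacsin C.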
On the technique in general: Quantitative high-throughput screening tests each substance at several concentrations.

Setting [1] is: measured here: lipid fluorescence (Fed channel) AC50, cells fed with added oleic acid.
Setting [2] is: measured here: cell number channel AC50, cells fed with added oleic acid.

In general, AC50 refers to the concentration at which the activity in the assay is half-maximal. A low value points to greater potency.

Some of the results follow. The main result of the screen is listed elsewhere. These columns were measured beside it and carry no call. The list favours compounds with an active or inconclusive main result. The note in brackets gives the kind of curve behind each potency; many fits are weak.

Turning to `COc1ccc(CNC(=O)COC(=O)c2cccc(S(=O)(=O)N3CCOCC3)c2)cc1`, the cell number change came to 6.88%. In addition, the AC50 under setting [1] is 14600 nM [rising, partial curve, poor fit].

Consider `CCOc1ccc(/C(O)=C2/C(=O)C(=O)N(CC3CCCO3)C2c2cccs2)cc1` (stereo not drawn), for which the cell number change is -31.5%. For the same compound, the AC50 under setting [2] is 32600 nM [falling, partial curve, poor fit]. Besides, the AC50 under setting [1] is 184 nM [falling, full curve, poor fit]. In the case of `O=c1cc(C(F)(F)F)nc(-c2cccnc2)[nH]1`, the cell number change came out at 7.58%. Further, under setting [1], the AC50 was 130 nM [falling, full curve, poor fit]. In the case of `O=C(c1ccc(Br)cc1)c1cc(-c2ccccn2)c(N2CCOCC2)s1`, the cell number change stood at 15.4%. For the same compound, the AC50 under setting [1] is 164 nM [rising, full curve]. As to `Cc1cc(NC(=O)Nc2ccccc2)n(-c2ccccc2)n1`, the cell number change is -19.5%. Moreover, the AC50 under setting [1] was 23100 nM [falling, partial curve]. As to `Cc1ccc(S(=O)(=O)NC(CC(=O)NCC2CCCO2)c2ccco2)cc1` (stereo not drawn), the cell number change was -0.94%. In addition, the AC50 under setting [1] is 20600 nM [falling, partial curve].

Regarding `O=C(CSc1nnc(COc2ccccc2)n1-c1ccccc1)c1cccs1`, the cell number change is -7.7%. For the compound `CC(=O)CC(c1ccccc1)c1c(O)c2ccccc2oc1=O` (stereo not drawn), the cell number change worked out at 5.78%. The AC50 under setting [1] is 580 nM [falling, full curve, poor fit]. `CC(C)(C)N(Cc1ccccc1)C(=O)COC(=O)CN1C(=O)NC2(CCCC2)C1=O`: the cell number change is -23.8%. Also, the AC50 under setting [1] is 29100 nM [rising, single point]. For `Cc1ccc2c(c1)C(c1ccccc1)N(C(=O)C(C)C)CC(=O)N2` (stereo not drawn), the AC50 is 2310 nM [rising, partial curve, poor fit] under setting [2] and 164 nM [rising, full curve, poor fit] under setting [1]. For `CC(C)(C)NC(=O)CSc1nc2[nH]ncc2c(=O)[nH]1`, the cell number change is -19.7%. Under setting [1], the AC50 is 5.8 nM [falling, full curve, poor fit]. For the compound `CC1=C/C(=C(\c2cc(C)c(O)c(Br)c2)c2ccccc2S(=O)(=O)O)C=C(Br)C1=O`, the cell number change was -10.1%. Further, the AC50 under setting [1] was 5.17 nM [rising, full curve, poor fit].

Turning to `N/C(=N\OC(=O)c1ccc(Cl)cc1)c1[nH]ncc1Br`, the cell number change came to 13.4%. In addition, the AC50 under setting [1] is 16400 nM [falling, partial curve]. For `CNC(=O)c1ccc(-c2sc3nc(N4CCOCC4)c4c(c3c2N)CC(C)(C)OC4)o1`, the cell number change is -17%. Besides, the AC50 under setting [1] is 6510 nM [falling, single point].

For `Clc1cc(Br)ccc1OCCCNCc1ccccc1`, the cell number change was -34.2%. Besides, under setting [2], the AC50 is 32600 nM [falling, single point].

Take `O=C(COC(=O)/C=C/c1ccccc1)NC1CCCCCC1`: the cell number change is -1.08%. Further, under setting [2], the AC50 was 6510 nM [falling, single point]. For the same compound, the AC50 under setting [1] was 6510 nM [falling, single point].

Consider `CC(=O)Nc1ccc(NC(=O)COc2ccc(Cl)cc2Cl)cc1`, for which the AC50 under setting [1] was 29100 nM [rising, single point]. Take `O=C(Oc1ccc2ccccc2c1)C1CCC1`: the cell number change was -8.07%. In the case of `COc1cccc(C2C(C#N)=C(N)N(N(C)C)C3=C2C(=O)CC(C)(C)C3)c1` (stereo not drawn), under setting [1], the AC50 is 731 nM [rising, full curve, poor fit]. `C/C(=N\NC(=O)c1c(Cl)c(C)nn1C)c1cccc(NC(=O)C2CCCC2)c1`: the cell number change is -51.5%. The AC50 under setting [2] was 32600 nM [falling, single point]. Further, the AC50 under setting [1] is 29100 nM [falling, single point]. In the case of `N#C/C(=C/Nc1ccccc1)c1ccsc1`, the AC50 under setting [2] is 731 nM [rising, single point]. Turning to `Cc1ccccc1NC(=O)c1ccc2snnc2c1`, the AC50 was 517 nM [rising, partial curve, poor fit] under setting [2] and 231 nM [rising, partial curve, poor fit] under setting [1].

`COC(=O)c1c(NC(=O)CN2CCN(C(=O)c3ccco3)CC2)c2cc(C)ccc2n1C`: the cell number change is -16.2%. Moreover, the AC50 under setting [1] is 29100 nM [falling, single point]. For `COC(=O)c1nnc(-c2ccccc2)c(-c2ccccc2)n1`, the cell number change was 9.98%. Besides, the AC50 under setting [1] is 51.7 nM [falling, partial curve]. Turning to `CCOC(=O)Cc1csc(SCc2nc3sc4c(c3c(=O)[nH]2)CCC4)n1`, the cell number change amounted to 6.11%. Besides, the AC50 under setting [2] was 651 nM [falling, single point]. In addition, under setting [1], the AC50 is 651 nM [falling, full curve].

Take `C/C=C/C(=O)Nc1cccc(C2=NOC3(C2)C[C@@H](C(N)=O)N(C(=O)/C(C)=C/C)C3)c1` (stereo partly drawn): the cell number change amounted to 20.6%. Further, the AC50 under setting [1] was 29100 nM [rising, single point]. Consider `COc1ccc(Cl)cc1NC(=S)Nc1ccccc1F`, for which the cell number change was 147%. In addition, the concentration at half-maximal activity (AC50) under setting [2] was 29100 nM [rising, partial curve, poor fit]. As for `C1CCN(c2nc3nonc3nc2NCC2CCOCC2)CC1`, the cell number change is 9.25%. For the same compound, the AC50 under setting [1] is 231 nM [falling, full curve].

With `O=C(Cn1ncc2c3ccccc3n(Cc3cccc(Cl)c3)c2c1=O)NCc1ccccn1`, the cell number change is 19.8%. Moreover, the AC50 under setting [1] is 29100 nM [rising, single point]. As for `CC1CCCC(C)N1C(=O)c1cc(-c2ccc3c(c2)OCO3)on1` (stereo not drawn), the cell number change is -6.67%. For `Cc1cc(Br)ccc1NC(=O)CN1C(=S)NC(C)(C)CC1C` (stereo not drawn), the cell number change came out at 30.5%. Also, the AC50 under setting [2] is 6510 nM [rising, single point]. Consider `Cn1cccc1/C=N/N1CCN(Cc2ccccc2)CC1`, for which the cell number change was found to be 29.9%. The AC50 under setting [1] was 13000 nM [rising, partial curve]. Take `O=C(CSc1nc2ccccc2s1)NNC(=S)Nc1ccccc1`: the cell number change was -12%. Further, the AC50 under setting [2] is 6510 nM [rising, single point]. Besides, the AC50 under setting [1] was 6510 nM [rising, partial curve]. For `O=C(NCCc1ccccc1)c1ccc2nc(N3CCOCC3)sc2c1`, the cell number change is -2.1%. `CCOc1ccc(OCC)c(NC(=O)C2CCCN2S(=O)(=O)c2cccc3cccnc23)c1` (stereo not drawn): the cell number change is -9.21%. Besides, under setting [1], the AC50 was 820 nM [rising, partial curve]. For the compound `CCS(=O)(=O)c1ncc(Cl)c(C(=O)Nc2ccccc2OC)n1`, the cell number change is -32.3%. Moreover, the AC50 under setting [2] is 820 nM [falling, full curve]. The AC50 under setting [1] was 1640 nM [falling, full curve]. For the compound `O=C(c1ccccc1Cc1ccccc1)N1CCN(S(=O)(=O)c2ccccc2)CC1`, the cell number change is -19.3%. Also, the AC50 under setting [1] was 11600 nM [falling, single point]. As for `CCO[C@@H]1OC(C(=O)N2CCN(C)CC2)=C[C@H](C(C)(C)C)[C@H]1CCCO`, the cell number change amounted to 1.02%. Also, the AC50 under setting [1] was 51.7 nM [falling, full curve, poor fit]. For the compound `NC(=O)c1ccc2c(=O)n3c(-c4cccs4)csc3nc2c1`, the cell number change came to 15.3%. Besides, the AC50 under setting [1] is 13000 nM [rising, partial curve, poor fit]. `Cc1ccnc(N(C(=O)c2cccs2)C(=O)c2cccs2)c1`: the AC50 under setting [1] was 16400 nM [rising, partial curve]. `CCCCn1c(=O)n(CC(O)c2ccccc2)c(=O)c2c1ncn2C1CCCC1` (stereo not drawn): the cell number change was -22.8%. Besides, under setting [1], the AC50 was 29.1 nM [rising, full curve, poor fit]. Take `CC(=O)Nc1ccc(C(=O)n2cnc3cc(C)c(C)cc32)cc1`: the cell number change is -90.6%. The AC50 under setting [2] is 29100 nM [falling, single point].

For `CC1CCCCN1CCCNC(=O)C1CCCN(c2ncnc3c2nc2n3CCCCC2)C1` (stereo not drawn), the cell number change is 35.5%. The AC50 under setting [2] was 32600 nM [rising, single point]. Besides, the AC50 under setting [1] is 29100 nM [falling, single point].

On to `Cc1cc(C(=O)OCC(=O)Nc2ccccc2)c(C)o1`, for which the AC50 under setting [1] is 23100 nM [rising, single point]. Take `COc1cc2c(cc1OC)C(C)N(CC(=O)Nc1ccc(C)c(S(=O)(=O)N3CCOCC3)c1)CC2` (stereo not drawn): the cell number change was -7.16%. Also, the AC50 under setting [1] is 580 nM [falling, single point]. `CCCCC1CC(/C(C)=N/NC(N)=O)OC1=O` (stereo not drawn): the cell number change was -32.5%. Besides, the AC50 under setting [2] is 73.1 nM [falling, full curve, poor fit]. For the same compound, under setting [1], the AC50 was 16.4 nM [falling, full curve, poor fit]. For `COc1ccccc1N1CCN(Cc2cc3c(cc2O)OCO3)CC1`, the cell number change was 1.28%. For the same compound, the AC50 under setting [1] was 29100 nM [falling, single point]. For `COc1ccc(C(=O)N[C@H](C(=O)NCc2cccs2)C(C)C)cc1`, under setting [2], the AC50 was 73.1 nM [rising, partial curve, poor fit].

`Cc1nc(N2CCN(S(=O)(=O)c3ccccc3C#N)CC2)c2c(-c3ccccc3)csc2n1`: the cell number change is -5.23%. Further, the AC50 under setting [1] was 580 nM [falling, single point]. As for `O=C1NC2(CCCCC2)C(=O)N1Cc1cc(=O)n2ccsc2n1`, the cell number change is -21%. In addition, the AC50 under setting [1] is 3660 nM [falling, single point].

For the compound `O=C(Nc1ccc(N2CCOCC2)cc1)C1CCN(C(=O)OCc2ccccc2)CC1`, the cell number change is -16%. The AC50 under setting [1] is 651 nM [falling, single point]. Turning to `c1cc(CNc2ccc(N3CCOCC3)cc2)ccn1`, the cell number change was determined as 10.3%. Moreover, the concentration at half-maximal activity (AC50) under setting [1] is 29100 nM [falling, single point]. For `CCOC(=O)CSc1ncnc2c1cnn2-c1ccc(C)cc1`, the cell number change is -3.83%. With `CCCNC(=O)C1Cc2cc(S(=O)(=O)N3CCCC3)ccc2N1C(C)=O` (stereo not drawn), the AC50 under setting [2] is 5.8 nM [falling, full curve, poor fit]. Take `Cc1ccc(N2CC(C(=O)N3CCN(c4ccccc4)CC3)CC2=O)cc1` (stereo not drawn): the cell number change was -20.3%. The AC50 under setting [2] was 651 nM [falling, full curve]. As for `COC(=O)c1ccccc1NC(=O)/C=C/c1cc(OC)c(OC)c(OC)c1`, the cell number change was -19.8%. For the same compound, the AC50 under setting [2] is 731 nM [rising, partial curve, poor fit].

In the case of `Cc1ccc(-n2nc(C)c3c2OC(N)=C(C#N)C3c2ccccc2F)cc1` (stereo not drawn), the cell number change was -25.6%. Under setting [1], the AC50 was 25900 nM [falling, partial curve, poor fit]. As to `CCCC(CCC(=O)Nc1ccc(S(N)(=O)=O)cc1)C(=O)O` (stereo not drawn), the cell number change is -43.5%. Also, the AC50 under setting [2] is 6.51 nM [falling, full curve, poor fit]. Under setting [1], the AC50 is 651 nM [falling, single point].

These data come from PubChem BioAssay AID2685 (National Center for Advancing Translational Sciences (NCATS), 2010).
